According to article PMC2853562:
Results are given in words; binding and its absence hold for the method and conditions named. For some assays here: Binding seen in cells or lysates may run through a third protein. Some entries that bind do so weakly or less than the wild type. Where a sequence is shown, tags or fusion partners need not be part of it. Each block holds one binder with its values, some of them ahead of it.

How the values were obtained:
GST-GADD45B = target: T1, GST-GADD45B (UniProt P22339); assay: pull-down; purified GST-GADD45B incubated with in vitro translated [35S]methionine-labeled MKK7 and/or CAR; bound proteins detected by autoradiography after SDS-PAGE; only the target purified
T1 sequence: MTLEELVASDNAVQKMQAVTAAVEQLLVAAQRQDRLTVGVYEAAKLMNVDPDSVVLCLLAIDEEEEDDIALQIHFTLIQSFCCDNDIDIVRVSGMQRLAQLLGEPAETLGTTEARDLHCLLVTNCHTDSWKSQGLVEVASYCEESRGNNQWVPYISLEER

GST-CAR = target: T2, GST-CAR (UniProt O35627); assay: pull-down; purified GST-CAR and GST-CAR mutants incubated with purified GADD45B (GST removed by thrombin); Western blot with anti-GADD45B (N-19) antibody; both purified
T2 sequence: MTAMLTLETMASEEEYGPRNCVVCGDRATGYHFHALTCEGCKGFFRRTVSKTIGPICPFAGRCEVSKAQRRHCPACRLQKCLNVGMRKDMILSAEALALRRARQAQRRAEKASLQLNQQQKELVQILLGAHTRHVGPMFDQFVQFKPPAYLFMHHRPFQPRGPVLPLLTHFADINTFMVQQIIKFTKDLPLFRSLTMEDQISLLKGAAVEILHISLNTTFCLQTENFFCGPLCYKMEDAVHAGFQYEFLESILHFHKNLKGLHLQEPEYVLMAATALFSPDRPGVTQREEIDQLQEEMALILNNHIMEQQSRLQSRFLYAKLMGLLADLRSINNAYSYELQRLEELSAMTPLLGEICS

binding (GST-GADD45B): binds
B1: in vitro translated CAR (receptor, UniProt O35627 1-358)
chain: T2 sequence
modifications: labeled with [35S] methionine

binding (GST-CAR): binds
B2: purified GADD45B protein (protein, UniProt P22339 1-160)
chain: T1 sequence
